The whole screen tested about 360,000 compounds, of which about 780 (0.22%) were called active. This list was built around the results that the source calls inconclusive (neither active nor inactive); the mix of calls is not that of the screen. Rule as the data show it: active = inhibition above about 35% (passing the limit was not always enough); inconclusive = no clear call, values can overlap the other calls.
Tested on: Botulinum neurotoxin type F light chain protease (Clostridium botulinum)
Test: BoNT/F light chain protease inhibitors, primary screen, biochemical, flow cytometry, MLPCN library (AID 588497); also: plate controls were buffer without enzyme for full effect and enzyme alone for no effect
Conditions: Multiplex microsphere protease cleavage assay, at 10 µM, hits give high values

Structure (SMILES)	inhibition
CN1C(=O)C(=Cc2ccc(N3CCCCC3)o2)C(=O)N(C)C1=S	active: 99.9%
Cc1cc2cc(CNS(=O)(=O)c3ccccc3)ccc2n1C	inactive: -103%
Cc1nc2nc(SCC(N)=O)[nH]c2cc1Br	inconclusive: -23.2%
CN(C(=O)CSc1nc(N)cc(=O)[nH]1)C1CCCCC1	inactive: 2.9%
CCn1cc(C(=O)NCCc2ccccc2C)c(=O)c2ccc(C)nc21	inconclusive: 16.4%
CCC(=O)OC1(Cc2ccc(CC)cc2)CC(C)N(C)CC1C (stereo unspecified)	inconclusive: 102%
COc1ccc(CN(C)S(=O)(=O)c2nnc(NC(=O)c3cccc(F)c3)s2)cc1OC	inactive: -4%
CC1=C(C(=O)N(C)C)C(c2ccc(C)s2)NC(=S)N1 (stereo unspecified)	inactive: -8.4%
CC(=O)C(Cc1ccccc1)NC(=O)COc1ccc2c(c1)OCO2 (stereo unspecified)	inactive: 0.7%
O/N=C/c1ccnc(SCc2ccc(Cl)cc2)n1	inconclusive: -5%
CC(C)(C)c1ccc(NC(=O)CSc2n[nH]c(=O)n2-c2cccnc2)cc1	inactive: 1.3%
Cc1c(NC(=O)C(C)OC(=O)C(NC(=O)c2ccco2)C(C)C)c(=O)n(-c2ccccc2)n1C (stereo unspecified)	inactive: 2.8%
O=S(=O)([N-]c1nc2ccccc2nc1-[n+]1ccc(CCCc2ccccc2)cc1)c1cccs1	inconclusive: 6.2%
CCC(C)NC(=O)CSc1nc2ccccc2c(=O)n1CCCN1CCCCC1 (stereo unspecified)	inconclusive: -5.5%
COc1ccc(OC)c(S(=O)(=O)CC(O)COc2ccccc2Cl)c1 (stereo unspecified)	inactive: -4.9%
O=C(Nc1ccc(Cl)cc1)OC1CN2CCC1CC2 (stereo unspecified)	inconclusive: 3.7%
COc1cccc(C2CCCCN(C)C2=O)c1 (stereo unspecified)	inconclusive: -125%
COc1cccc2[nH]c3ccccc3c(=O)c12	inconclusive: -29.7%
O=C(Cc1cccs1)N1CCN(S(=O)(=O)c2ccc(Br)cc2)CC1	inactive: 1.2%
COC1OC(COC(=O)c2ccccc2)C(OC(=O)c2ccccc2)C1OC(=O)c1ccccc1 (stereo unspecified)	inconclusive: -31.2%
CCN1CCN(c2oc(-c3ccco3)nc2C#N)CC1	inconclusive: 14%
CCN(CC(=O)Nc1ccccc1C(F)(F)F)C(=O)Cc1sc(C)nc1-c1ccc(F)cc1	inconclusive: -17.6%
CC(=O)Nc1ccc(C(F)(F)F)cc1Cl	inconclusive: 17.3%

Structure (SMILES)	inhibition
Cn1c(SCC(=O)N2c3ccccc3Sc3ccccc32)nnc1-c1ccco1	inconclusive: 40%
CCC(c1nnnn1CCC(C)C)N1CCC(C(N)=O)CC1 (stereo unspecified)	inconclusive: -6.3%
O=C(Nc1nccs1)c1ccc[nH]c1=O	inconclusive: -35.9%
Fc1cccc(CNCCc2c[nH]c3ccccc23)c1	inconclusive: -9%
Cc1ccc(C2CC(c3ccc(NS(C)(=O)=O)cc3)=NN2C(=O)c2ccco2)cc1 (stereo unspecified)	active: 36.1%
COc1ccc(Cl)cc1S(=O)(=O)N(C)CC(=O)N1CCCC1	inconclusive: -11.6%
CCC(=O)N(CCC1(c2ccccc2OC)CCOC(C(C)C)C1)Cc1ccco1 (stereo unspecified)	inconclusive: -39.7%
Cc1cccc(C)c1NC(=O)CSc1nnc([C@H](C)NC(=O)OC(C)(C)C)o1	inconclusive: -15%
CCCCN(C)C(=O)c1ccc(Nc2nc(C(N)COCc3ccccc3)cs2)nc1 (stereo unspecified)	inactive: -13.2%
Cc1cc(C)n2nc(C)c(-c3ccc(Cl)cc3)c2n1	inactive: -21.5%
COC(=O)c1ccc(COc2ccccc2/C=N/NC(N)=O)o1	inconclusive: 77.6%
CCCN(CC(=O)Nc1ccc(C(N)=O)cc1)CC(=O)Nc1ccc(F)c(F)c1F	inactive: -2.5%
CCc1cc2c(SCC(=O)c3ccc(Cl)s3)ncnc2s1	inactive: -22.2%
COc1cc(C(=O)N(C)C2CCCCC2)ccc1OC1CCN(C(C)=O)CC1	inconclusive: 34.6%
CCOC(=O)C1=C(COC(=O)c2nc(Cl)ccc2Cl)NC(=O)NC1C (stereo unspecified)	inactive: -4%
CCOC(=O)C1=C(C)Nc2ccccc2S1	inconclusive: -77.1%
CCCn1c(N)c(N(CCOC)C(=O)c2ccc(N3CCCC3=O)cc2)c(=O)[nH]c1=O	inconclusive: -3.9%
COc1ccc(C(=O)NCCn2cc(SCC(=O)Nc3cc(C)on3)c3ccccc32)cc1OC	inconclusive: -17%
O=c1c2ccccc2c(-c2cccc(C(F)(F)F)c2)nn1-c1ccccc1	inconclusive: 38.7%
Nc1cnn(Cc2ccccc2F)c1	inactive: -14.9%
O=C(Nc1ccc(S(=O)(=O)Nc2cnc3ccccc3n2)cc1)c1ccc(Cl)cc1Cl	inconclusive: -61.9%
Cc1ccc2nc3c(cc(C(=O)NC4CCCC4)c(=N)n3C3CCCCC3)c(=O)n2c1	inactive: 5.6%
CSc1ncc(C(=O)Nc2ccccc2Cl)c(C)n1	inconclusive: -0.4%

Fetched by compound from above, 2 records:
Structure (SMILES)	inhibition
Cc1cc(C)n2nc(C)c(-c3ccc(Cl)cc3)c2n1	inactive: -21.5%
COc1ccc(CN(C)S(=O)(=O)c2nnc(NC(=O)c3cccc(F)c3)s2)cc1OC	inactive: -4%

Remaining list, next part.

Structure (SMILES)	inhibition
O=C(NNC(=O)c1nn(-c2ccc(F)cc2)ccc1=O)c1ccc(Cl)cc1	inconclusive: -56.1%
OCC1(Cc2ccccc2F)CCCN(Cc2c(F)ccc(F)c2F)C1 (stereo unspecified)	inconclusive: 4.9%
O=C1NC[C@@H](CCCCN2C[C@H](Cc3ccc(O)cc3)N(Cc3ccccc3)C(=O)C2=O)N(Cc2ccccc2)C1=O	inactive: 1.4%
CCC(=O)c1ccc(N2CCCCCC2)c(F)c1	inactive: 11.5%
CC1(C(=O)NS(=O)(=O)c2ccc(Br)cc2)CCN1C(=O)Cc1ccsc1 (stereo unspecified)	inactive: 1.8%
COc1cc(CCC(=O)NCc2ccc(F)cc2)cc(OC)c1OC	inconclusive: 2.9%
Cc1cc(Nc2cccc(F)c2)nc(N2CCOCC2)n1	active: 42.1%
COc1ccc(S(=O)(=O)NC2CC3CCC2C3)cc1 (stereo unspecified)	inconclusive: 4.9%
Cc1cccc(C(=O)NCC(=O)N2CCN(c3ccc(Cl)cc3)CC2)c1	inconclusive: 28.6%
COc1ccc2nc(COC(=O)c3cccc([N+](=O)[O-])c3)c(C(C)=O)[n+]([O-])c2c1	inconclusive: -78.4%
COc1cc(OC)c2c(-c3ccccc3)cc(=O)oc2c1C(CCN1CCOCC1)c1ccc(N(C)C)cc1 (stereo unspecified)	inactive: -5.8%
COc1cc(C(=S)N2CCOCC2)ccc1OC(=O)c1cccc(C)c1	inconclusive: -17.4%
COc1cc(OC)cc(N2C(=O)CSCC2=O)c1	inconclusive: -17%
CC(=NNC(=S)N1CC2CCC(CC2)C1)c1ccccn1	active: 60.2%
Cc1nccn1C(c1ccccc1)c1ccccc1	inconclusive: 9.1%
Cc1c(C)c(C)c(CN2CCSCC2)c(C)c1C	inconclusive: 82.2%
CN1CCN(CC(=O)c2cc(C(C)(C)C)c(O)c(C(C)(C)C)c2)CC1	inconclusive: 16.1%
COc1cc2c(cc1OC)C(c1ccccc1)N(C(=O)c1ccccc1)CC2 (stereo unspecified)	inconclusive: 29.9%
O=C(CC12CC3CC(CC(C3)C1)C2)NC1CC1	inconclusive: 13.6%
Cn1c(=O)c2cn3c(c2n(C)c1=O)C(c1ccccc1)CC(c1ccccc1)=N3 (stereo unspecified)	inconclusive: 1.4%
Cc1cc(CNC(=O)CC2C(=O)NCCN2CC(C)(C)C)nn1C (stereo unspecified)	inactive: 1.1%
O=C(C[n+]1ccn(-c2ccccc2)c1)c1ccc([N+](=O)[O-])cc1	inconclusive: 19.6%
COc1ccc(CNCc2cccc(C)c2)cc1	inconclusive: -55.1%

Grouped by structure: those above with bromine (3)
Structure (SMILES)	inhibition
Cc1nc2nc(SCC(N)=O)[nH]c2cc1Br	inconclusive: -23.2%
O=C(Cc1cccs1)N1CCN(S(=O)(=O)c2ccc(Br)cc2)CC1	inactive: 1.2%
CC1(C(=O)NS(=O)(=O)c2ccc(Br)cc2)CCN1C(=O)Cc1ccsc1 (stereo unspecified)	inactive: 1.8%

Next results:

Structure (SMILES)	inhibition
O=C(c1cccc([N+](=O)[O-])c1)N1CCN(C/C=C/c2ccccc2)CC1	inconclusive: 101%
COc1ccc(CCNC(=O)CCC(=O)NC2CCCC(C)C2C)cc1OC (stereo unspecified)	inconclusive: -17.5%
CC(C[N+](C)(C)C)OC(=O)C1(c2ccccc2)CCCC1 (stereo unspecified)	inconclusive: -28.7%
Cc1ccc(/C=C/c2ccc(N(C)C)cc2)[n+](C)c1	inconclusive: 10.8%
COC(=O)c1cc(C(=O)NCc2ccc3c(c2)OCO3)cc([N+](=O)[O-])c1	inconclusive: -3.1%
CCOC(=O)C1CCN(CCCSc2ccccc2)CC1	inconclusive: -15.5%
CC(C)Oc1cccc(-c2cc(C(=O)N3CCN(c4ncccn4)CC3)c3ccccc3n2)c1	inactive: -3.4%
O=C(CCNC(=O)c1ccc(Br)cc1)Nc1cccc(S(=O)(=O)N2CCCCC2)c1	inconclusive: -2.5%
CCC(=O)c1cn(CC(=O)Nc2ccc(F)cc2)c2ccccc12	inactive: 2.8%
COc1ccc(CCn2c(NN=C3CCCC3)nc3c2c(=O)[nH]c(=O)n3C)cc1	inconclusive: -2.8%
CCCCOc1ccccc1N1CCN(CCCN2C(=O)C3CCCN3C2=O)CC1 (stereo unspecified)	inconclusive: -8.9%
CCCOP(=O)(c1ccc(N(C)C)cc1)C(O)c1cc(OC)ccc1OC (stereo unspecified)	inconclusive: -1.6%
CCc1nnc(NS(=O)(=O)c2ccc(NC(=O)CCC(=O)OC)cc2)s1	inconclusive: -8.4%
CS(=O)(=O)N1CCc2cc(C(=O)Nc3ccccc3Cl)ccc21	inconclusive: -24%
COC(=O)Cn1nc(-c2ccccc2)c2ccccc21	inactive: 4.1%
O=C(N=c1ccn(-c2nc3ccccc3nc2NS(=O)(=O)c2ccc(Cl)cc2)cc1)c1cccs1	inactive: -2.2%
O=C(NC1CCCC1)C1c2ccccc2OCC(=O)N1Cc1ccc2c(c1)OCO2 (stereo unspecified)	inactive: -7.4%
COc1ccc(/C=C/C(=O)NC(=S)NNC(=O)c2cccnc2)cc1OC	inactive: 2.7%
O=C(NC(=S)NN1CCCCC1c1cccnc1)c1ccc(Br)cc1 (stereo unspecified)	inconclusive: -42.2%
O=S(=O)(Nc1ccccc1N1CCCCC1)c1ccc(F)cc1	inconclusive: 15.1%
O=C(O)CCNC(=O)c1ccc(NC(=O)Cc2ccc(Cl)cc2)cc1	inactive: -0.1%
Cc1cc(Cl)ccc1NNC(=O)c1snnc1C	inconclusive: -66.9%
